# Experimental data: PubChem BioAssay AID1259424 (University of Nebraska Medical Center, 2018)
# Aim: 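Find knockdowns that reproduce the expression shifts seen after KSR1 loss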 (primary screen)
# Cells: human HCT116 colon cancer cells
# Reagents: siRNA pool against human genes, 50 nM
# Read-out: 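Six signature mRNAs by branched-DNA multiplex assay, scaled to two housekeeping genes and non-targeting median, log2; matched to mean KSR1 knockdown profile by Pearson correlation and euclidean distance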
# Direction: mean correlation with KSR1 profile and KSR1 correlation: higher = expression change more like KSR1 knockdown; mean distance from KSR1 profile: higher = expression change less like KSR1 knockdown
# The deposit covers about 14,000 reagents; this is an unselected part. 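Higher correlation or smaller distance means closer resemblance to KSR1 loss; control wells, including KSR1 knockdowns, recur on many plates.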 A reagent listed more than once was tested more than once; the source does not tell the runs apart. Not stated in the record: the time to read-out.
target gene,mean correlation with KSR1 profile,mean distance from KSR1 profile,"KSR1 correlation, replicate 1","KSR1 correlation, replicate 2","KSR1 correlation, replicate 3"
MED15 (mediator complex subunit 15),-0.393,3.62,-0.167,-0.614,-0.386
FGF17 (fibroblast growth factor 17),0.225,1.32,0.572,0.000941,0.217
APOA4 (apolipoprotein A4),0.279,1.65,0.23,0.225,0.203
ARPP19 (cAMP regulated phosphoprotein 19),0.706,0.914,0.724,0.609,0.697
ZNF644 (zinc finger protein 644),0.573,1.26,0.556,0.191,0.755
ZNF644 (zinc finger protein 644),-0.017,2.48,-0.7,0.314,-0.571
MGAT2,-0.42,3.04,-0.433,-0.556,-0.293
HNMT (histamine N-methyltransferase),0.584,1.45,0.584,0.488,0.636
OGFOD3,0.231,1.66,0.326,0.388,-0.167
"ZC3HAV1 (zinc finger CCCH-type containing, antiviral 1)",-0.451,2.2,-0.574,-0.508,-0.516
PCID2 (PCI domain containing 2),-0.34,2.14,-0.581,-0.274,-0.246
"OPLAH (5-oxoprolinase, ATP-hydrolysing)",-0.268,2.82,-0.602,-0.435,-0.127
ZNF14 (zinc finger protein 14),0.495,1.1,0.571,0.475,0.405

Next part, starting with the last 2 of the part before.
target gene,mean correlation with KSR1 profile,mean distance from KSR1 profile,"KSR1 correlation, replicate 1","KSR1 correlation, replicate 2","KSR1 correlation, replicate 3"
"OPLAH (5-oxoprolinase, ATP-hydrolysing)",-0.268,2.82,-0.602,-0.435,-0.127
ZNF14 (zinc finger protein 14),0.495,1.1,0.571,0.475,0.405
SLC26A2,-0.665,2.05,-0.49,-0.449,-0.588
RCVRN (recoverin),0.193,2.11,0.23,0.000463,0.239
ZNF302 (zinc finger protein 302),-0.396,1.95,-0.713,-0.341,-0.245
TRIP13 (thyroid hormone receptor interactor 13),0.428,1.47,0.335,0.4,0.43
BTG3 (BTG anti-proliferation factor 3),-0.305,1.69,-0.422,-0.269,-0.0313
GNA11 (G protein subunit alpha 11),-0.216,3,-0.164,-0.171,-0.465
CCT6A (chaperonin containing TCP1 subunit 6A),-0.0454,1.85,0.0888,-0.0241,0.118
ABCA3 (ATP binding cassette subfamily A member 3),-0.2,4.19,-0.134,-0.266,-0.299
LEMD3 (LEM domain containing 3),-0.251,2.25,-0.0141,-0.467,-0.452
PSMA6 (proteasome 20S subunit alpha 6),-0.0729,5.01,0.0216,-0.117,-0.0334
PSMB5 (proteasome 20S subunit beta 5),-0.183,5.12,0.0384,-0.304,-0.477
SYNGR2 (synaptogyrin 2),-0.276,1.5,0.0974,-0.651,0.000108
HSP90AB1 (heat shock protein 90 alpha family class B member 1),0.065,2.16,0.312,-0.0998,0.174
GPM6B (glycoprotein M6B),0.424,1.43,0.432,0.224,0.318
CDC14A (cell division cycle 14A),-0.158,1.92,-0.104,-0.074,-0.24
BBOF1 (basal body orientation factor 1),-0.164,2.24,-0.174,-0.364,-0.363
TYR (tyrosinase),0.0985,3.48,0.262,-0.0463,0.0207
HJURP (Holliday junction recognition protein),-0.0114,1.84,-0.0445,0.000847,-0.182
MRPS6 (mitochondrial ribosomal protein S6),0.423,3.31,0.447,0.0968,0.671
SLPI (secretory leukocyte peptidase inhibitor),-0.226,2.35,-0.0367,-0.198,-0.356
PAWR (pro-apoptotic WT1 regulator),0.545,1.42,0.667,0.77,0.299
